# Test system: adult patients with type 2 diabetes mellitus with albuminuria
# Test: Mediation analysis of UACR effect through blood pressure change
# Type: in vivo, human
# Experimental: From mediation analyses, it was determined that for the mITT Population, only 4 to 17% of the total effect of treatment on change in UACR is mediated through change in systolic blood pressure. Similarly, for the ITT Population, only 8 to 25% of the total UACR change is mediated through change in systolic blood pressure. When using Week 12 trough cuff systolic blood pressure as the mediator, a more common but less comprehensive blood pressure measure, only 3% of the total UACR change is mediated through change in SBP.
smiles,measurement,setting,value
"OC(CNc1nc(-c2cc(-c3ccon3)n(Cc3ccccc3F)n2)ncc1F)(C(F)(F)F)C(F)(F)F [Compound I, praliciguat]",share of total UACR change mediated through change in SBP,Week 12 trough cuff systolic blood pressure as the mediator,3%
same,share of the effect on UACR independent of blood pressure changes,"mediation analysis, ITT",⅔

# From patent US20240165114A1, “TREATMENT OF DIABETIC NEPHROPATHY WITH AN sGC STIMULATOR” (Cyclerion Therapeutics, Inc., priority 2019, published 2024)
